Data as given in patent publication US11511054B2, “Use of antistatic materials in the airway for thermal aerosol condensation process” (Alexza Pharmaceuticals, Inc., priority 2015, dated 2022).

What was measured:
[1] = Airway deposition and aerosol charges of normal, metallized and Permastat Plus airways (Example 40); format: physicochemical; settings: 28.3 LPM
[2] = Effect of induction charging on airway housing deposition (ESD simulator, HPLC of housing extract); settings: 15 LPM, mean ± SD
[3] = Airway deposition and aerosol charges for Permastat, Permastat Plus and standard airway material (Example 38); settings: 28.3 LPM; for Mean airway deposition: mean of 4 devices; for Airway deposition / Emitted dose: single devices, listed as AZ002
[4] = Total net charge vs. airway housing deposition, standard vs anti-static polycarbonate housing; settings: mean ± SD, N-4
[5] = Metallized airway, ESD gun 16 kV+
[6] = Permastat Plus airway, ESD gun 16 kV+
[7] = Permastat Plus airway, no ESD gun
[8] = no applied potential to airway housing

Cc1nnc2n1-c1ccc(Cl)cc1C(c1ccccc1)=NC2 [Alprazolam]
Airway dep [1, 5]: 0% | Airway dep (second column) [1, 5]: 0.001% and 0% and 0.002% | Ave Airway dep [1, 5]: 0% | Emitted dose [1, 5]: 0.971 mg and 0.959 mg and 0.963 mg | HP dep [1, 5]: 0.028 mg and 0.041 mg and 0.035 mg | Airway dep ([1]; Metallized airway, no ESD gun): 0% | Airway dep (second column) ([1]; Metallized airway, no ESD gun): 0% and 0.001% | Ave Airway dep ([1]; Metallized airway, no ESD gun): 0% | Emitted dose ([1]; Metallized airway, no ESD gun): 0.964 mg and 0.961 mg | HP dep ([1]; Metallized airway, no ESD gun): 0.036 mg and 0.038 mg | Airway dep (second column) ([1]; Normal airway, ESD gun 16 kV+): 0.15% and 0.024% | Ave Airway dep ([1]; Normal airway, ESD gun 16 kV+): 8.5% | Emitted dose ([1]; Normal airway, ESD gun 16 kV+): 0.815 mg and 0.943 mg | HP dep ([1]; Normal airway, ESD gun 16 kV+): 0.035 mg and 0.033 mg | Airway dep ([1]; Normal airway, no ESD gun): 1% and 9% | Airway dep (second column) ([1]; Normal airway, no ESD gun): 0.007% and 0.095% | Ave Airway dep ([1]; Normal airway, no ESD gun): 5% | Emitted dose ([1]; Normal airway, no ESD gun): 0.956 mg and 0.874 mg | HP dep ([1]; Normal airway, no ESD gun): 0.037 mg and 0.031 mg | Airway dep [1, 6]: 0% | Airway dep (second column) [1, 6]: 0.001% and 0% | Ave Airway dep [1, 6]: 0% | Emitted dose [1, 6]: 0.956 mg and 0.959 mg | HP dep [1, 6]: 0.043 mg and 0.041 mg | Airway dep [1, 7]: 0% | Airway dep (second column) [1, 7]: 0% | Ave Airway dep [1, 7]: 0% | Emitted dose [1, 7]: 0.962 mg and 0.963 mg | HP dep [1, 7]: 0.038 mg and 0.037 mg | Aerosol Deposition on Housing ([2]; +16 kV applied to airway housing): 45 ± 6 % Loaded Dose | Aerosol Deposition on Housing [2, 8]: 12 ± 6 % Loaded Dose | Aerosol Deposition on Housing ([2]; −16 kV applied to airway housing): 12 ± 4 % Loaded Dose | Mean airway deposition ([3]; Permastat Plus airway, 1 mg): 0.07% | Airway deposition ([3]; Permastat Plus airway, 1 mg): 0.04% and 0.03% and 0.00% and 0.20% | Emitted dose ([3]; Permastat Plus airway, 1 mg): 96.7% and 95.9% and 96.3% and 96.1% | Mean airway deposition ([3]; Permastat airway, 1 mg): 0.12% | Airway deposition ([3]; Permastat airway, 1 mg): 0.2% and 0.1% | Emitted dose ([3]; Permastat airway, 1 mg): 96.6% and 96.1% and 96.2% and 95.7% | Emitted dose ([3]; control (normal) airway, 1 mg coated): 81.3% and 78.8% and 80.7% and 84.3% | Mean airway deposition ([3]; control (normal) airway, 1 mg): 15.1% | Airway deposition ([3]; control (normal) airway, 1 mg): 15.0% and 16.8% and 16.1% and 12.3% | Aerosol deposition on airway housing ([4]; anti-static polycarbonate airway housing): 0 ± 0 % Loaded Dose | Aerosol deposition on airway housing ([4]; standard polycarbonate airway housing): 15 ± 2 % Loaded Dose

CN1CCN(CCCN2c3ccccc3Sc3ccc(Cl)cc32)CC1 [Prochlorperazine]
Aerosol Deposition on Housing [2, 8]: 3 ± 3 % Loaded Dose

CCN(C(C)=O)c1cccc(-c2ccnc3c(C#N)cnn23)c1 [Zaleplon]
Aerosol Deposition on Housing [2, 8]: 0 ± 0 % Loaded Dose

Several values for one entry are separate records, joined by “and”; a condition that tells them apart may be missing. Equal values may be shown once.
